Results are given in words; binding and its absence hold for the method and conditions named. Binding seen in cells or lysates may run through a third protein. Some entries that bind do so weakly or less than the wild type.
Target: T1, C3a anaphylatoxin chemotactic receptor (C3AR1) (UniProt Q16581)
T1 sequence: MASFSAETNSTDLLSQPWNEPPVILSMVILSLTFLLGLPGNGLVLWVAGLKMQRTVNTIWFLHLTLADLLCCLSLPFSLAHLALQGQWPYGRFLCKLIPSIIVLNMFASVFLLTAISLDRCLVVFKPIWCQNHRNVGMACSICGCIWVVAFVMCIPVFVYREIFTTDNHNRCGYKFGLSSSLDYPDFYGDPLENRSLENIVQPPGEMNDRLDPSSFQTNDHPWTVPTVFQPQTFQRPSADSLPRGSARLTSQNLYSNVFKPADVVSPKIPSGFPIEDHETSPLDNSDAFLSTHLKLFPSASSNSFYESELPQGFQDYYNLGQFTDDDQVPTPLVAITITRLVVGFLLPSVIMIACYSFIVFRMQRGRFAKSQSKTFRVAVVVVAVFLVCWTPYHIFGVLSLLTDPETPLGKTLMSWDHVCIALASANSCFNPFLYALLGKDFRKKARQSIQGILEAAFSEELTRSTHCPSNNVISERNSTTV
Assay: co-IP; Co-IP of C3AR1 and ITGB2 (Fig 4B); cells, antibodies, bait and conditions not described

The chains behind the UniProt entries cited, without tags or fusion partners. Residues count along the entry.
UniProt P05107, residues 23-769: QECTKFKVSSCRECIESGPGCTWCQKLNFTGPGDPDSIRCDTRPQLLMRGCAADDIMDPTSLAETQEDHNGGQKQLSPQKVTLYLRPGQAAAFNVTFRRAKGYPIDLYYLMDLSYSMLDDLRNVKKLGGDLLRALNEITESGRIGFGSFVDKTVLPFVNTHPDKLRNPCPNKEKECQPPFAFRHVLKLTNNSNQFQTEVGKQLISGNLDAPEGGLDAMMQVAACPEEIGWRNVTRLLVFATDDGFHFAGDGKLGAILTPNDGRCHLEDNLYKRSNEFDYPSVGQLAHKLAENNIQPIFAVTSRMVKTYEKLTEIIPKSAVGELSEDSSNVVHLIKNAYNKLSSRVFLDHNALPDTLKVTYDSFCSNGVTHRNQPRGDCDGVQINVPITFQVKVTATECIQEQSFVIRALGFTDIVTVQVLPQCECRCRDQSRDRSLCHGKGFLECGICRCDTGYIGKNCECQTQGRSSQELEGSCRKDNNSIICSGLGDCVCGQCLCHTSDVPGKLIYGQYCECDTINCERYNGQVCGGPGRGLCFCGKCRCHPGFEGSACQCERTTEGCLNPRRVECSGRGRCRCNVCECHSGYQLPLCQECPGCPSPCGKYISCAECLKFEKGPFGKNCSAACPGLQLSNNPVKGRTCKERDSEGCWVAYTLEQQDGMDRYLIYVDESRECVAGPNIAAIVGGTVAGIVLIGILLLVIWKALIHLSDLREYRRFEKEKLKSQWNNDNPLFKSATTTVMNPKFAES

In the case of “Integrin subunit beta 2 (ITGB2) (from UniProt P05107 23-769)”, the binding is reported as “binds”.

Source: publication PMC12431250
